The assay has as its system L1210 leukemia ip in BDF1 mice, survival T/C. Put plainly: NCI In Vivo Anticancer Drug Screen. Data for tumor model L1210 Leukemia (intraperitoneal) in B6D2F1 (BDF1) mice. The settings on record: T/C endpoint: mean survival time, higher T/C = longer survival.
[1] abbreviates: dose: 200.0 mg/kg/injection, schedule: Q01DX001 (ip), vehicle: saline.
[2] abbreviates: dose: 300.0 mg/kg/injection, schedule: Q01DX001 (ip), vehicle: saline.
[3] abbreviates: dose: 400.0 mg/kg/injection, schedule: Q01DX001 (ip), vehicle: saline.
The mark [4] stands for this setting: dose: 40.0 mg/kg/injection, schedule: Q01DX001 (ip), vehicle: saline.
Setting [5] is: dose: 75.0 mg/kg/injection, schedule: Q01DX001 (ip), vehicle: saline.
Setting [6] is: dose: 150.0 mg/kg/injection, schedule: Q01DX001 (ip), vehicle: saline.
Setting [7] is: dose: 400.0 mg/kg/injection, schedule: Q04DX003 (ip), vehicle: saline with Tween-80.
The mark [8] stands for this setting: dose: 200.0 mg/kg/injection, schedule: Q04DX003 (ip), vehicle: Klucel (hydroxypropylcellulose) (HPC).
[9] abbreviates: dose: 400.0 mg/kg/injection, schedule: Q04DX003 (ip), vehicle: Klucel (hydroxypropylcellulose) (HPC).
The mark [10] stands for this setting: dose: 200.0 mg/kg/injection, schedule: Q04DX003 (ip), vehicle: saline.
[11] abbreviates: dose: 400.0 mg/kg/injection, schedule: Q04DX003 (ip), vehicle: saline.
[12] abbreviates: dose: 100.0 mg/kg/injection, schedule: Q01DX009 (ip), vehicle: Klucel (hydroxypropylcellulose) (HPC).
Where [13] appears, read: dose: 200.0 mg/kg/injection, schedule: Q01DX009 (ip), vehicle: Klucel (hydroxypropylcellulose) (HPC).
Setting [14] is: dose: 400.0 mg/kg/injection, schedule: Q01DX009 (ip), vehicle: Klucel (hydroxypropylcellulose) (HPC).
Where [15] appears, read: dose: 400.0 mg/kg/injection, schedule: Q01DX001 (ip), vehicle: carboxymethylcellulose (CMC).
[16] abbreviates: dose: 200.0 mg/kg/injection, schedule: Q01DX009 (ip), vehicle: saline.

Results on 27 molecules are retold here after PubChem BioAssay AID248 (DTP/NCI, 2004).

The list is a part of this screen's results and no random one: it gathers tests that were run many times, whatever their T/C, doses with no T/C, and many T/C values between a quarter and a half above the control. Other doses and runs of a compound stand elsewhere. T/C gives the treated animals as a percentage of the vehicle group. Some entries give survivors of the animals treated and no T/C: the source files T/C as zero there, which appears to mark a toxic dose or a test without result, not a measured value. Some survivor counts are full or nearly so, which does not show that the dose was tolerated: the source hardly ever lists a survival T/C far under the control, and the zero likely stands for such cases as well. Survivors were counted at the toxicity check, usually on the fifth day, unless a day is given; later deaths do not show. Schedule codes are those of the source, taken here to give the interval after Q, in days (D) or hours (H), and the number of doses after X. Some entries were tested several times; the values are given in rising order. Some molecules as drawn cover several salts, stereoisomers or complexes of the source; a dose is that of the sample tested. Where survival is the endpoint, the PubChem record calls one and a half times the control and up active, and a quarter to a half above the control has no call in these data; cut-offs in other NCI protocols can differ. Some T/C values carry the count of animals alive at the toxicity check (mostly the fifth day); where none is given, no animal had died by that day.

As for `CCOC1CCC2C(CCC(/C=C/c3ccc(O)c4ncccc34)N2C)C1` (stereo not given), the T/C is 127 % of control (dose: 60.0 mg/kg/injection, schedule: Q01DX015 (ip), vehicle: saline); 128 % of control (dose: 88.8 mg/kg/injection, schedule: Q01DX001 (ip), vehicle: saline); 116 % of control (dose: 200.0 mg/kg/injection, schedule: Q01DX001 (ip), vehicle: saline, evaluated on day 30); 129 and 134 % of control (dose: 200.0 mg/kg/injection, schedule: Q01DX001 (ip), vehicle: saline, run until all animals had died). Besides, the survivor count was 2 of 4 under setting [1], 2 of 4 under setting [2] and 0 of 4 under setting [3].
Regarding `O=[N+]([O-])c1ccc([As+](c2ccccc2)(c2ccccc2)c2ccccc2)cc1`, the survivor count is reported as 6 of 6 under setting [4], 6 of 6 under setting [5], 0 of 6 under setting [6] and 0 of 6 under setting [2].
On to `CSc1ccc(NC(=O)Nc2cccc(F)c2)cc1`, for which, where the note is “dose: 400.0 mg/kg/injection, schedule: Q01DX009 (ip), vehicle: other”, the survivor count is listed as 0 of 6.
In the case of `Oc1ccc(-c2ccccc2)cc1Br`, under setting [7], the survivor count is on record as 3 of 6.
Take `C[n+]1ccccc1/C=C/c1ccc2c(c1)OCO2`: the survivor count is, setting by setting: (dose: 50.0 mg/kg/injection, schedule: Q01DX009 (ip), vehicle: Klucel (hydroxypropylcellulose) (HPC)) 6 of 6; (dose: 50.0 mg/kg/injection, schedule: Q04DX003 (ip), vehicle: Klucel (hydroxypropylcellulose) (HPC)) 5 of 6; (dose: 100.0 mg/kg/injection, schedule: Q04DX003 (ip), vehicle: Klucel (hydroxypropylcellulose) (HPC)) 0 of 6; under setting [8], 0 of 6; under setting [9], 0 of 6.
As to `CCCCC(/C=C/c1ccc2ccccc2n1)CC` (stereo not given), the survivor count by setting is: under setting [1], 2 of 4; under setting [3], 0 of 4.
In the case of `C/C(=C\Cl)CO`, the survivor count under setting [7] was 0 of 6.
Turning to `CCN(CC)CCCC(C)NC(=O)c1cc(=O)[nH]c(=O)[nH]1` (stereo not given), the survivor count (dose: 200.0 mg/kg/injection, schedule: Q01DX009 (ip), vehicle: water) is 3 of 6; the survivor count (dose: 400.0 mg/kg/injection, schedule: Q01DX009 (ip), vehicle: water) is listed as 0 of 6; the survivor count (dose: 400.0 mg/kg/injection, schedule: Q04DX003 (ip), vehicle: water) is on record as 0 of 6.
As for `CC1CC(NC(=O)CC#N)CC(C)(C)C1` (stereo not given), the survivor count (dose: 400.0 mg/kg/injection, schedule: Q04DX002 (ip), vehicle: saline with Tween-80) is 0 of 3.
As for `O=C(O)C(O)CBr` (stereo not given), the survivor count is on record as 3 of 6 (dose: 100.0 mg/kg/injection, schedule: Q04DX003 (ip), vehicle: saline); 0 of 6 under setting [10]; 0 of 6 under setting [11].
As to `COc1ccccc1OCCOCCN(C)C1CCCCC1`, the survivor count was 0 of 6 under setting [12]; 2 of 3 (dose: 100.0 mg/kg/injection, schedule: Q04DX002 (ip), vehicle: Klucel (hydroxypropylcellulose) (HPC)); 0 of 6 under setting [13]; 0 of 6 under setting [14].
For the molecule `CCCCN(CCCC)CCCC#N`, the survivor count under setting [10] was 6 of 6 and the survivor count under setting [11] was 0 of 6.
Consider `COc1ccccc1/C=C/[N+](=O)[O-]`, for which the survivor count was 4 of 6 under setting [12], 0 of 6 under setting [13], 6 of 6 under setting [8] and 0 of 6 under setting [14].
Consider `Nn1c(=O)[nH][nH]c1=O`, for which the survivor count under setting [14] is listed as 0 of 6 and the survivor count under setting [9] is listed as 0 of 6.
Regarding `C[N+](C)(C)/N=C1\CCc2ccccc21`, the survivor count (dose: 400.0 mg/kg/injection, schedule: Q01DX001 (ip), vehicle: saline with Tween-80) was 1 of 6.
For `Nc1cc(Cl)c(O)c(Cl)c1`, the survivor count (dose: 100.0 mg/kg/injection, schedule: Q01DX001 (ip), vehicle: saline with Tween-80) is given as 3 of 6; the survivor count (dose: 200.0 mg/kg/injection, schedule: Q01DX001 (ip), vehicle: carboxymethylcellulose (CMC)) is on record as 2 of 6; the survivor count under setting [1] is reported as 1 of 4; the survivor count under setting [15] is reported as 1 of 6; the survivor count under setting [3] is given as 0 of 4; the survivor count (dose: 800.0 mg/kg/injection, schedule: Q01DX001 (ip), vehicle: saline) was 0 of 4.
On to `CSc1nccc(=O)n1C`, for which the survivor count was 0 of 6 (dose: 100.0 mg/kg/injection, schedule: Q01DX009 (ip), vehicle: saline); 0 of 6 under setting [16]; 0 of 6 (dose: 400.0 mg/kg/injection, schedule: Q01DX009 (ip), vehicle: saline).
As for `COc1cc(C=Nc2cc(Br)c(OC)c(Br)c2)ccc1N(CCCl)CCCl`, the T/C runs as follows: (dose: 44.0 mg/kg/injection, schedule: Q01DX001 (ip), vehicle: carboxymethylcellulose (CMC)) 133 and 135 % of control; (dose: 66.0 mg/kg/injection, schedule: Q01DX001 (ip), vehicle: carboxymethylcellulose (CMC)) 128 % of control; (dose: 100.0 mg/kg/injection, schedule: Q01DX001 (ip), vehicle: carboxymethylcellulose (CMC)) 130 and 135 % of control. Also, the survivor count under setting [15] was 1 of 4.
With `O=[N+]([O-])C1CCCCC1O` (stereo not given), the survivor count was 2 of 6 under setting [5], 0 of 6 under setting [6] and 0 of 6 under setting [2].
With `c1ccc([P+](Cc2cccc(C[P+](c3ccccc3)(c3ccccc3)c3ccccc3)c2)(c2ccccc2)c2ccccc2)cc1`, the survivor count is 2 of 6 (dose: 5.0 mg/kg/injection, schedule: Q01DX001 (ip), vehicle: acetone); 0 of 6 (dose: 10.0 mg/kg/injection, schedule: Q01DX001 (ip), vehicle: saline); 0 of 6 (dose: 20.0 mg/kg/injection, schedule: Q01DX001 (ip), vehicle: saline); 1 of 6 under setting [4]; 0 of 6 (dose: 75.0 mg/kg/injection, schedule: Q01DX001 (ip), vehicle: acetone); 0 of 6 (dose: 150.0 mg/kg/injection, schedule: Q01DX001 (ip), vehicle: acetone). In addition, the survivor count (dose: 300.0 mg/kg/injection, schedule: Q01DX001 (ip), vehicle: acetone) was 0 of 6.
Consider `CCCCCCC(=O)N(CC(C)C)CC(C)C`, for which, under “dose: 400.0 mg/kg/injection, schedule: Q01DX009 (ip), vehicle: carboxymethylcellulose (CMC)”, the survivor count is 1 of 3 and 3 of 6.
Regarding `O=C(O)C(CSC(c1ccccc1)(c1ccccc1)c1ccccc1)NSc1ccccc1[N+](=O)[O-]` (stereo not given), the T/C under setting [14] was 125 % of control [5 of 6 alive].
Take `CC[N+](C)(C)c1ncnc2nc[nH]c12`: the survivor count is recorded as 3 of 6 under setting [16] and 0 of 6 under setting [3].
As to `NCCN1Cc2ccccc2CCc2ccccc2C1`, the survivor count by setting is: under setting [12], 2 of 6; under setting [13], 0 of 6; under setting [14], 0 of 6.
As to `O=C(CCc1ccc(O)cc1)N/N=C/c1ccc2c(c1)OCO2`, for the setting “dose: 100.0 mg/kg/injection, schedule: Q01DX009 (ip), vehicle: saline with Tween-80”, the survivor count is listed as 6 of 6.
For `CC1=CC(=Nc2ccc(N(CCCl)CCCl)cc2)C=CC1=O`, the survivor count by setting is: under setting [12], 3 of 3; under setting [13], 3 of 3.
For the molecule `CC(=O)O/N=C(/C)c1ccccc1`, the survivor count (dose: 300.0 mg/kg/injection, schedule: Q01DX009 (ip), vehicle: saline sonified) was 3 of 6.
